Out of some 53,000 sequences screened, about 3,700 (7%) were called active.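 How the source made its calls: active means gene knockdowns whose robust z-score for IL-1 alpha signal is at least 2 or at most -2, so actives lie on both sides; inactive means the rest.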 The list shows a part of the results.

The assay is described as follows: Components of the Cytosolic LPS Sensing Pathway: Gene Identification via Genome-wide siRNA Screen.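 Further: robust z of the log signal after scaling to non-targeting control siRNA wells of the plate.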 The following applies: RAW264.7 macrophages, IL-1a HTRF, actives lie on both sides, screened at 100 nM (by protocol), cells primed 5 h with Pam3CSK4 first. The procedure, abridged:
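RAW264.7; siRNA 100 nM final, RNAiMAX, 48h 37 degrees C; Pam3CSK4 5 h; LipidA + TransIT-TKO 24 h; IL-1a HTRF; CellTiter-Glo viability; robust z vs negative-control median.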
As to GGCUCUGACCAAGAAUGAUTT against Cpsf1, the z-score is inactive: 1.27.

As for GGACCCGUAUUUUAUGAAGTT against Sf3a2, the z-score is inactive: 1.17.

As to CCAAAUGGAGGAGAUUAGCTT against Ccdc7a, the z-score is inactive: -0.353.

As for GGCUCCAAGGGAUUUGGUUTT against Rbfox1, the z-score was active: 2.77.

CCUAGUGAGCACUGUACUUTT against Olfr988: the z-score is inactive: 0.0962.

For GCAGUUAUAUGCUCAAGAUTT against Pik3r3, the z-score is inactive: 0.0211.

Regarding GCUUUUUGACUACGUAGCCTT against Hkdc1, the z-score was inactive: 0.0141.

Take GCCCAUUCAUAUGUAUAUCTT against Clpp: the z-score is inactive: -1.07.

As for GGAGGUUUUGAAAUAGUCATT against Kdm5a, the z-score is inactive: 0.36.

As to GGGCAGGAAAAAAAAUUCATT against Vps13b, the z-score is inactive: 1.68.

Take GGUGUGACACCUAAGAUGATT against Tspyl3: the z-score was inactive: 0.689.

GGUUGUGAUCUUGAAACUUTT against Tbc1d23: the z-score is inactive: -0.562.

Consider GGACAUGAGUUACAUGACATT against Galnt5, for which the z-score is inactive: 0.146.

On to GGUGGUUUCACUCCAGAUGTT against Rrp1, for which the z-score was inactive: -0.0525.

As to GGCCAUGAUUUACGACGACTT against C1qtnf4, the z-score is inactive: -1.22.

With GCAUGCAAUGUUUUUCGUATT against Hyal6, the z-score was inactive: -1.12.

For the sequence CGUGACCAUCAGGCUAAAGTT against Ecrg4, the z-score was active: 3.42.

Take GGAAAAACCAAGGUAGAGGTT against Pick1: the z-score is inactive: -1.38.

In the case of GGAAAACAAGACAGUUUCGTT against Rab10os, the z-score was inactive: -0.78.

On to GCCCUUGGAAACACCAAUATT against Mustn1, for which the z-score is inactive: -0.0855.

Take GGGAUAGUUACAUCGAAGUTT against Acot9: the z-score was inactive: -0.631.

As for GCAGUAUGCACACCUGGAGTT against Nrde2, the z-score is inactive: 1.87.

As for GCACUGUUGUACUUGACUGTT against Fancg, the z-score is inactive: -0.0674.

As to UUCGUUCAAAUGAAGCUUCTT against Ankrd13c, the z-score was inactive: 0.617.

Take GGAAAAACUUCAGGAAGAATT against Mrpl21: the z-score was inactive: 0.8.

Regarding GGAAGCACUGAUGAAUUAUTT against Acer3, the z-score is inactive: 1.49.

As for CCAACUCGAAGCAAUAUGCTT against Morf4l2, the z-score is inactive: 1.24.

As to GCAAUGUUUACGAAUGAGGTT against Fam136a, the z-score was inactive: -1.24.

As to CGGCCUGUAAGAACAAACATT against Cdc37l1, the z-score was inactive: -0.381.

Consider GGUUGUGCUGAAGAAUUCUTT against Cspg4, for which the z-score was inactive: -0.464.

In the case of GCAUGAGAGCCUAUGCAGCTT against Man2b2, the z-score was inactive: -0.0341.

In the case of GGAACUGGUAAAUUUGUAATT against Abhd17b, the z-score was inactive: -0.26.

As to GGAGAAAGGAGACCUAAAGTT against Mmab, the z-score was inactive: 1.29.

CCUGUUUAAACUCUGCGGATT against Vit: the z-score is inactive: 0.678.

Consider GGACAAUUGAGGAACUUCUTT against Tkt, for which the z-score was inactive: 0.944.

In the case of GCUAGGUAUACAGCCAAAGTT against Spryd4, the z-score is inactive: -0.699.

With GGAGACAGAAUCAUAGUUATT against Sh3yl1, the z-score is inactive: 0.0505.

For GGAUAUCUUCAUAUUGGUGTT against Ces1f, the z-score is active: 4.

With GGAAAAUAUGUGUAGGGAATT against Nkx2-2, the z-score was inactive: -0.882.

For GGUGAACAGAAUAUAUGGATT against Olfr629, the z-score is inactive: -1.21.

Consider CCUUCACACUUAAUAGAGGTT against Ifitm3, for which the z-score was inactive: 0.892.

In the case of GGACAAACAGCUUCAAGAUTT against Psmd2, the z-score is active: -2.26.

For the sequence GGUUUUGGACACACUAUUUTT against Tmem184c, the z-score was inactive: 0.103.

Take CCAGUGACAUUCAAUACCUTT against Lrif1: the z-score is inactive: -1.52.

For GGACCAUACUGGAUAAGGATT against Ccl12, the z-score is inactive: -1.47.

For the sequence CCACAUCUCAUGUGAAACCTT against Olfr517, the z-score is inactive: -0.927.

Consider GCCAUCACUGAAUUAAGAUTT against Pcdhb11, for which the z-score is inactive: -0.018.

Take CCUCUAGUAAAGAAAUAGATT against Srsf11: the z-score was inactive: 0.0296.

As for CCUAUUGAUUGUAUAUCCATT against Emc2, the z-score is inactive: -0.429.

Turning to GGACAAUGAAGGAAUUGAUTT against Mdm4, the z-score was inactive: -0.579.

For the sequence GCCCGCACAAUCGUACUUUTT against Ccl28, the z-score was inactive: -1.2.

On to CCUCGUAUUUAUACUCAGUTT against Gpr18, for which the z-score is inactive: 0.3.

Take GGAAUGUUGUUCUCAAGAUTT against Ddhd1: the z-score was inactive: 0.216.

For GGUACUAAACUUCUUCAACTT against Rsu1, the z-score was inactive: 0.159.

Turning to CCACCCAACCAGGUAACUATT against Fam184b, the z-score is inactive: -1.1.

As to GGAAGAAACCUCUUCGAGATT against Hmg20a, the z-score is inactive: 0.608.

Take GGUGAACAGAGCUCAUAAUTT against Specc1: the z-score is inactive: 0.172.

In the case of GGAAACAAGAUUACAUCAATT against Adamts2, the z-score is active: 2.04.

For the sequence GGGUCUACAAUCACCAGACTT against Wnt10a, the z-score was inactive: 1.15.

On to CCAAACUAUAGUGAACUUATT against Irak4, for which the z-score is inactive: -1.27.

GGCUAAAUUUGAAGAUGAUTT against Ecrg4: the z-score was inactive: -1.22.

Consider GUGAAAUCUAUGGAGAAUGTT against Jkamp, for which the z-score was inactive: 1.34.

For GCAGGUCACUUUCUAGAGATT against Srsf3, the z-score is active: -2.25.

With CCAGAGGCCAUAGUUAUGUTT against Wnk1, the z-score is inactive: 1.29.

Consider CCGAGUUUGCCUUCUAUCCTT against Hoxb13, for which the z-score was inactive: 0.913.

On to GGCGAAAGAUGAACCACCATT against Aurkaip1, for which the z-score was inactive: -1.65.

For GGCUUUGAUAUACCUUGAATT against Pvt1, the z-score was inactive: -1.98.

For the sequence GGCAAAGCCAAAAGAAAUATT against Mindy2, the z-score was inactive: 0.852.

GGGCAGCACUGUGGUUAAUTT against Sh3rf1: the z-score was inactive: -1.92.

The record behind these values is PubChem BioAssay AID1508600 (Functional Genomics Laboratory (NCATS/FGL), 2020).
